# Measurements from the supplement of paper PMC9433722.
# Structures can show the parent of a compound that is named as a salt. Some of the results follow. Most values come without repeats; read them as rough.
# Test system: Saos-2
# Test: cell viability (CCK-8) relative to DMSO control (% of control); higher = less cytotoxic
# Settings: 10 µM; 48 h
row,Structure (SMILES),cell viability
1,O=C(c1ccccc1)c1ccc2n1CCC2C(=O)O (stereo not drawn) [Ketorolac Tromethamine],116
2,CC(C)(C#N)c1cc(Cn2cncn2)cc(C(C)(C)C#N)c1 [Anastrozole],71.5
3,NS(=O)(=O)c1cc(C2(O)NC(=O)c3ccccc32)ccc1Cl (stereo not drawn) [Chlorthalidone],100
4,Nc1nc(F)nc2c1ncn2[C@@H]1O[C@H](COP(=O)(O)O)[C@@H](O)[C@@H]1O [Fludarabine Phosphate],87.7
5,Cc1cccc(C)c1OCC(C)N (stereo not drawn) [Mexiletine·HCl],103

# Test system: U2OS
# Test: as above
# Settings: 10 µM; 48 h
row,Structure (SMILES),cell viability
1,O=C(O)CCc1nc(-c2ccccc2)c(-c2ccccc2)o1 [Oxaprozin],108
2,Cc1oncc1C(=O)Nc1ccc(C(F)(F)F)cc1 [Leflunomide],86
3,NC[C@H]1CC[C@H](C(=O)O)CC1 [Tranexamic Acid],96.5
4,CCc1nn(CCCN2CCN(c3cccc(Cl)c3)CC2)c(=O)n1CCOc1ccccc1 [Nefazodone·HCl],101
5,CCOC(=O)[C@H](CCc1ccccc1)N[C@@H](C)C(=O)N1Cc2ccccc2C[C@H]1C(=O)O [Quinapril·HCl],96.8
6,NNCCc1ccccc1 [Phenelzine Sulfate],105
7,N=C(N)NC(=O)Cc1c(Cl)cccc1Cl [Guanfacine·HCl],130
8,COc1cc(NC(C)CCCN)c2ncccc2c1 (stereo not drawn) [Primaquine diphosphate],89.2
9,CC(COc1ccccc1)N(CCCl)Cc1ccccc1 (stereo not drawn) [Phenoxybenzamine . hydrochloride],115
10,O=C1CN(/N=C/c2ccc(-c3ccc([N+](=O)[O-])cc3)o2)C(=O)N1 [Dantrolene . sodium],90.3
11,CN(C)CCOc1ccc(/C(=C(/CCCl)c2ccccc2)c2ccccc2)cc1 [Toremifene Base],114
12,CC(C)Cn1cnc2c(N)nc3ccccc3c21 [Imiquimod],97.1
13,C[C@@H](O)[C@H]1C(=O)N2C(C(=O)O)=C(S[C@@H]3CN[C@H](CNS(N)(=O)=O)C3)[C@H](C)[C@H]12 [Doripenem],107
14,O=C(O)c1cn(C2CC2)c2cc(N3CCNCC3)c(F)cc2c1=O [Ciprofloxacin],93.7
15,Cc1cn(-c2cc(NC(=O)c3ccc(C)c(Nc4nccc(-c5cccnc5)n4)c3)cc(C(F)(F)F)c2)cn1 [Nilotinib],97.5
16,CC1=C(/C=C/C(C)=C\C=C\C(C)=C\C(=O)O)C(C)(C)CCC1 [9-cis-Retinoic acid],103
17,CC(=O)OCC(=O)[C@@]1(O)CC[C@H]2[C@@H]3CCC4=CC(=O)CC[C@]4(C)[C@H]3[C@@H](O)C[C@@]21C [Hydrocortisone Acetate],99.4
18,CC(=O)N[C@H]1[C@H]([C@H](O)[C@H](O)CO)OC(C(=O)O)=C[C@@H]1NC(=N)N [Zanamivir],81.6
19,CCN1CCN(C(=O)N[C@@H](C(=O)N[C@@H]2C(=O)N3[C@@H]2SC(C)(C)[C@@H]3C(=O)O)c2ccccc2)C(=O)C1=O [Piperacillin],102

row,Structure (SMILES),cell viability
1,CC1=C(CC(=O)O)c2cc(F)ccc2/C1=C\c1ccc([S+](C)[O-])cc1 (stereo not drawn) [Sulindac],91.8
2,COC(=O)N[C@H](C(=O)N[C@@H](Cc1ccccc1)[C@@H](O)CN(Cc1ccc(-c2ccccn2)cc1)NC(=O)[C@@H](NC(=O)OC)C(C)(C)C)C(C)(C)C [Atazanavir],107
3,c1cnc2cc3c(cc2n1)[C@@H]1CNC[C@H]3C1 [Varenicline Tartrate],88.2
4,C[C@]12CC[C@@H]3c4ccc(O)cc4C[C@@H](CCCCCCCCC[S+]([O-])CCCC(F)(F)C(F)(F)F)[C@H]3[C@@H]1CC[C@@H]2O (stereo partly drawn) [Fulvestrant],104
5,COc1ccc(Cl)cc1C(=O)NCCc1ccc(S(=O)(=O)NC(=O)NC2CCCCC2)cc1 [Glyburide],94.3
6,Clc1ccc(C(Cn2ccnc2)OCc2csc3c(Cl)cccc23)c(Cl)c1 (stereo not drawn) [Sertaconazole . Nitrate],116
7,O=C1c2cccc3c2[C@H](CCC3)CN1[C@@H]1CN2CCC1CC2 [Palonosetron·HCl],80.3
8,CC1(C)O[C@@H]2C[C@H]3[C@@H]4C[C@H](F)C5=CC(=O)C=C[C@]5(C)[C@H]4[C@@H](O)C[C@]3(C)[C@]2(C(=O)CO)O1 [Flunisolide],109
9,CC1(C)O[C@@H]2C[C@H]3[C@@H]4CCC5=CC(=O)C=C[C@]5(C)[C@H]4[C@@H](O)C[C@]3(C)[C@]2(C(=O)CO)O1 [Desonide],86.6
10,Cc1ccnc2c1NC(=O)c1cccnc1N2C1CC1 [Nevirapine],113
11,OC[C@H]1O[C@@H](n2cnc3c2N=CNC[C@H]3O)C[C@@H]1O [Pentostatin],107
12,Cc1ccc(Nc2nccc(N(C)c3ccc4c(C)n(C)nc4c3)n2)cc1S(N)(=O)=O [Pazopanib·HCl],84.7
13,O=C1NC(=O)C(c2ccccc2)(c2ccccc2)N1 [Phenytoin],108
14,C#C[C@]1(O)CC[C@H]2[C@@H]3CCC4=CC(=O)CC[C@@H]4[C@H]3C(=C)C[C@@]21CC [Etonogestrel],92.3
15,O=C(c1ccccc1)c1ccc2n1CCC2C(=O)O (stereo not drawn) [Ketorolac Tromethamine],116
16,CC(C)(C#N)c1cc(Cn2cncn2)cc(C(C)(C)C#N)c1 [Anastrozole],95.2
17,NS(=O)(=O)c1cc(C2(O)NC(=O)c3ccccc32)ccc1Cl (stereo not drawn) [Chlorthalidone],88.8
18,Nc1nc(F)nc2c1ncn2[C@@H]1O[C@H](COP(=O)(O)O)[C@@H](O)[C@@H]1O [Fludarabine Phosphate],69.6
19,Cc1cccc(C)c1OCC(C)N (stereo not drawn) [Mexiletine·HCl],107
